Values from PubChem BioAssay AID1053208 (Peter MacCallum Cancer Centre, 2014).

- Test: 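Genes whose silencing cuts survival of bone tumour cells only with doxorubicin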 (primary screen)
- Cells: mouse osteosarcoma cells, early-passage culture from an engineered mouse model of fibroblastic bone tumour
- Knock-down reagent: siRNA pool against mouse genes, 40 nM
- Time to read-out: about 120 h (48 h before drug, then 72 h with drug)
- Conditions: doxorubicin 100 nM for 72 h, roughly 30-40% inhibitory dose
- Detection: 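Luminescent ATP signal taken as viability with or without 100 nM doxorubicin for 72 h; mean of two wells set against non-targeting siRNA and turned into robust z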
- Scale: viability z-score with doxorubicin: higher = more viable cells under doxorubicin; viability z-score without drug: higher = more viable cells with knock-down alone
- Rule for the call: 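a pool counts as active when its viability z-score with doxorubicin is -2 or below and its z-score without drug lies between -2 and 2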
The deposit covers about 17,000 reagents; below is a random part of them. 788 of them (4.7%) count as active. 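Calls rest on z-score classes alone; an extra cut-off of viability at most 70% of control was not applied to them.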 Entries without a mark were called inactive. Not all columns of the deposit are shown. No sequences are given here.

gene knocked down,PubChem SID,combined z-score class,viability z-score with doxorubicin,viability z-score without drug
Actr3b,SID152259229,no change with or without drug,-0.22,0.51
Aig1,SID152310722,no change with or without drug,-0.34,1.18
Tmt1a,SID152323381,no change with or without drug,-0.45,0.17
Zfp524,SID152289060,no change with or without drug,0.67,0.84
Zdhhc5,SID152299194,no change with or without drug,-0.45,1.18
Mgrn1,SID152290401,no change with or without drug,-0.9,-0.51
Vezt,SID152313848,no change with or without drug,0.11,0.67
Kcns3,SID152311803,no change with or without drug,-0.9,-1.85
Prl3d3,SID152314967,no change with or without drug,-0.9,-0.67
Fmnl1,SID152317157,no change with or without drug,0,0.34
Dcdc5,SID152337663,no change with or without drug,0.9,0.84
Chchd3,SID152329111,no change with or without drug,-1.46,1.01
Clec1a,SID152294678,no change with or without drug,0.11,1.52
Pf4,SID152279682,no change with or without drug,0.79,-0.51
Tmem175,SID152298854,no change with or without drug,0.22,-0.17
Atrn,SID152334849,no change with or without drug,-0.67,-0.84
Or5ap2,SID152297200,no change with or without drug,-1.69,-0.51
Dcbld2,SID152286884,no change with or without drug,0.56,0.84
Rheb,SID152284612,no change with or without drug,0.67,0.34
Kcnmb4,SID152334019,no change with or without drug,0.34,-0.84
Or1n2,SID152341194,no change with or without drug,-1.12,-1.01
Kel,SID152322416,no change with or without drug,1.12,1.01
Isl1,SID152274880,no change with or without drug,0.45,0.17
Cntnap4,SID152315665,high cell count without drug only,0.11,2.53
Agt,SID152311316,no change with or without drug,0.22,-0.51
Nufip1,SID152307499,no change with or without drug,-0.45,0.84
Rxrb,SID152331089,no change with or without drug,-0.45,-0.17
Pmel,SID152316522,no change with or without drug,-1.57,-0.34
Gm5115,SID152299013,no change with or without drug,-0.22,0.67

Continued, starting with the last 3 of the part before.
gene knocked down,PubChem SID,combined z-score class,viability z-score with doxorubicin,viability z-score without drug
Rxrb,SID152331089,no change with or without drug,-0.45,-0.17
Pmel,SID152316522,no change with or without drug,-1.57,-0.34
Gm5115,SID152299013,no change with or without drug,-0.22,0.67
4930579C12Rik,SID152289697,no change with or without drug,0.22,-0.17
Syncrip,SID152322152,no change with or without drug,0.79,1.18
Cox8b,SID152313715,no change with or without drug,-1.12,-0.34
Tcirg1,SID152340681,no change with or without drug,-0.11,-0.17
Nop56,SID152305053,no change with or without drug,0.22,-0.84
Sh3bgrl3,SID152329600,no change with or without drug,-0.67,-1.52
Cops3,SID152260937,no change with or without drug,-1.35,0.17
Zfp947,SID152310590,no change with or without drug,-0.22,-0.67
Pitx3,SID152279599,no change with or without drug,-0.9,-0.17
Swt1,SID152298585,no change with or without drug,0.56,0.51
Vmn1r212,SID152304613,high cell count with and without drug,4.95,3.2
Or2n1c,SID152270212,low cell count without drug only,-1.35,-2.19
Ubxn6,SID152320738,no change with or without drug,1.01,-0.67
Itgal,SID152307009,no change with or without drug,-1.57,-0.17
Vps13c,SID152334463,no change with or without drug,-0.34,-0.17
Clec2h,SID152293914,no change with or without drug,-1.8,-0.84
N4bp2l1,SID152275825,no change with or without drug,-0.45,0.51
Or5w1b,SID152310631,no change with or without drug,-1.12,-0.51
Myo1c,SID152276113,no change with or without drug,0.79,0.17
Ldhal6b,SID152302068,no change with or without drug,0.45,0.51
Bglap,SID152261514,no change with or without drug,0.34,-0.51
